This is an account of results in the supplement of paper PMC12823440, “Inhibitors supercharge kinase turnover through native proteolytic circuits” (Nature, 2025).

By UniProt entry, the sequences of proteins in these tests, tags left out. Where a name states a change or a piece, a line headed by the entry shows the natural chain unless it says otherwise.
UniProt P50613: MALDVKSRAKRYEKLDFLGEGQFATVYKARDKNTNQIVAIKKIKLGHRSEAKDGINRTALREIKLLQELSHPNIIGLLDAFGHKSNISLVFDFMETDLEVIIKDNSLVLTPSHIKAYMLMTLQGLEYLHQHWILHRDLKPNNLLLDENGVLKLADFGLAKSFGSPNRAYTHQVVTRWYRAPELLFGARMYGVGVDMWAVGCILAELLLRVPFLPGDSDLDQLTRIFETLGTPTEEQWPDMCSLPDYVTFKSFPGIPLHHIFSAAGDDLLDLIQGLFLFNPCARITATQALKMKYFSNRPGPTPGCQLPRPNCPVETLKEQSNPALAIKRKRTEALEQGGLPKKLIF
UniProt P50750, whole entry: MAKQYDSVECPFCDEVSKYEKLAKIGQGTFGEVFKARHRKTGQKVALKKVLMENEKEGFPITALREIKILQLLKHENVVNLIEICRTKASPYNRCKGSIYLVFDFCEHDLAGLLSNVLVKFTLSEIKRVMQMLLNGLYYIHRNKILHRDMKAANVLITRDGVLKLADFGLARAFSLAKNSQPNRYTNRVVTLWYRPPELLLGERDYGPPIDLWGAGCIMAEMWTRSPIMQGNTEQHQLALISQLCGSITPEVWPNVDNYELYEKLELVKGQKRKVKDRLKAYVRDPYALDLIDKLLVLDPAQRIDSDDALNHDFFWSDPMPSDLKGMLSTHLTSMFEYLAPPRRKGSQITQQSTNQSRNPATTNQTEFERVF

Where a name gives a salt, the structure may show the parent alone. This is one part of the list. The calls rarely recur for the same compound in another form.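 Kinases were expressed as nanoluciferase fusions in K562 cells and luminescence was read every 4 h between 2 and 18 h as percent of control, DMSO set to 100% and a positive control to 0%. A time point counts as decreased when the signal drops significantly (2 sigma). The hit call is the authors' own, does not follow from the count of time points alone, and its rule is not shown.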

One experiment addresses CDK7 (UniProt P50613). As to the kind of experiment: kinase-Nluc reporter destabilization hit call (1 = scored as downregulated) (binary); higher = compound decreases kinase abundance. The settings on record: K562; 2-18 h.
As to `CN(c1ncccc1CNc1nc(Nc2ccc3c(c2)CC(=O)N3)ncc1C(F)(F)F)S(C)(=O)=O` (2.5 µM), the “kinase-Nluc reporter destabilization hit call” value is inactive: 0.

`COc1ccc2c(C(=O)Nc3ccc(NC(=O)c4nn(C5CCN(C(=O)CC(C)(C)C#N)CC5)c5ccc(F)cc45)cc3Cl)cnn2c1` [Src Inhibitor 3] (2.5 µM): the “kinase-Nluc reporter destabilization hit call” value is inactive: 0. Consider `Oc1ccc(-c2nc(-c3ccc(F)cc3)c(-c3ccncc3)[nH]2)cc1` (2.5 µM), for which the “kinase-Nluc reporter destabilization hit call” value is inactive: 0. For the molecule `COc1cc(Nc2ncc3c(n2)-c2ccc(Cl)cc2C(c2c(F)cccc2OC)=NC3)ccc1C(=O)O` [Alisertib] (2.5 µM), the “kinase-Nluc reporter destabilization hit call” value was inactive: 0. The same measure, in the same setting: in the case of `O=c1c(-c2ccc(O)cc2)coc2cc(O)cc(O)c12` [Genistein] (10 µM) it was inactive: 0. Turning to `CN1CCN(c2ccc(C(=O)Nc3n[nH]c4ccc(Cc5cc(F)cc(F)c5)cc34)c(NC3CCOCC3)c2)CC1` [Entrectinib] (2.5 µM), the “kinase-Nluc reporter destabilization hit call” value is inactive: 0. In the case of `CCN1CCN(Cc2ccc(C(=O)Nc3ccc(C)c(Oc4ccc5c(c4)CC(=O)N5)c3)cc2C(F)(F)F)CC1` (2.5 µM), the “kinase-Nluc reporter destabilization hit call” value was inactive: 0.

The target of a further experiment is CDK9 (UniProt P50750). The description is as above. The conditions noted are these: K562; 2-18 h.
With `CC(C)(C)n1nc(Cc2cccc3ccccc23)c2c(N)ncnc21` (10 µM), the “kinase-Nluc reporter destabilization hit call” value is inactive: 0.

Consider `CC1(C)CC=C(c2nc(C3CC(C)(C)OC(C)(C)C3)ccc2NC(=O)c2nc(C#N)c[nH]2)CC1` [Edicotinib] (2.5 µM), for which the “kinase-Nluc reporter destabilization hit call” value is inactive: 0. On the same count and under the same terms, in the case of `CC(C)CC(=O)Nc1n[nH]c2c1CN(C(=O)C1CCN(C)CC1)C2(C)C` (2.5 µM) it was inactive: 0; in that of `Nc1ncnc2c1c(-c1ccc(Oc3ccccc3)cc1)cn2C1CCCC1` (2.5 µM), inactive: 0; in that of `CC(=O)NCC(=O)N1[C@@H]2CC[C@H]1c1ccc(Nc3ncc(C(F)(F)F)c(NC4CCC4)n3)cc12` (2.5 µM), inactive: 0. `Cc1nc(-c2cnc(NC(C)C)n(C)c2=O)ccc1Oc1ccnc(-c2cnn(C)c2)c1` (2.5 µM): the “kinase-Nluc reporter destabilization hit call” value was inactive: 0. Take `CN(C)C(=O)/C(C#N)=C/c1ccc(-c2nc3cnc4[nH]ccc4c3n2C2CCCCC2)o1` (10 µM): the “kinase-Nluc reporter destabilization hit call” value is inactive: 0. In the case of `CCCS(=O)(=O)Nc1ccc(F)c(C(=O)c2c[nH]c3ncc(Cl)cc23)c1F` (10 µM), the “kinase-Nluc reporter destabilization hit call” value is inactive: 0. On to `COc1ccc2c(NC(=O)Nc3cccc(C(F)(F)F)n3)ccnc2c1` (10 µM), for which the “kinase-Nluc reporter destabilization hit call” value was inactive: 0.

For `CNC(=O)c1cccc(-c2ccc3c(N4CCOC[C@@H]4C)nc(N4CCOC[C@@H]4C)nc3n2)c1` [Vistusertib] (2.5 µM), the “kinase-Nluc reporter destabilization hit call” value is active: 1. For `COCCNCCc1cccc(Nc2ncc3c(n2)-c2ccccc2[C@H](c2ccccc2F)C3)c1` [Derazantinib] (2.5 µM), the “kinase-Nluc reporter destabilization hit call” value is inactive: 0.

Take `CNC(=O)c1ccccc1Nc1nc(Nc2ccc(N3CCOCC3)cc2OC)ncc1Cl` (2.5 µM): the “kinase-Nluc reporter destabilization hit call” value was inactive: 0.

As for `Cc1c(C(=O)N2CCOc3ccc(-c4ccc(N)nc4)cc3C2)ccc(S(C)(=O)=O)c1F` (10 µM), the “kinase-Nluc reporter destabilization hit call” value was inactive: 0. On to `Cc1ccc(NC(=O)Nc2nnc(Sc3ncnc4cc(OCCCN5CCOCC5)ccc34)s2)cc1` (10 µM), for which the “kinase-Nluc reporter destabilization hit call” value was inactive: 0. On to `N#CC(=Cc1ccc(O)c(O)c1)C(=O)NCc1ccccc1` (mixture of isomers) (10 µM), for which the “kinase-Nluc reporter destabilization hit call” value is inactive: 0. With `COc1ccc(COc2ccc(Cc3cnc(N)nc3N)cc2OC)cc1` (10 µM), the “kinase-Nluc reporter destabilization hit call” value was inactive: 0. On to `CC(=O)N1CCN(c2ccc(OCC3COC(Cn4ccnc4)(c4ccc(Cl)cc4Cl)O3)cc2)CC1` (configuration not stated) [Ketoconazole] (2.5 µM), for which the “kinase-Nluc reporter destabilization hit call” value was inactive: 0. `Cc1ccc(F)c(NC(=O)Nc2ccc(-c3cccc4[nH]nc(N)c34)cc2)c1` [Linifanib] (2.5 µM): the “kinase-Nluc reporter destabilization hit call” value is inactive: 0. For the molecule `NC(=O)c1ccc2nc(-c3ccc(Oc4ccc(Cl)cc4)cc3)[nH]c2c1` (10 µM), the “kinase-Nluc reporter destabilization hit call” value is inactive: 0. The same measure, in the same setting: in the case of `CNc1nc(-c2ccc3c(N)n[nH]c3c2)cc(N2C[C@@H](C(=O)NC3CCCCC3)CC[C@H]2C)n1` (10 µM) it was inactive: 0; in that of `Cc1nc(N)sc1-c1ccnc(Nc2ccc(N3CCOCC3)cc2)n1` (10 µM), inactive: 0; in that of `O=c1oc2ccccc2c(O)c1Cc1c(O)c2ccccc2oc1=O` [Dicoumarol] (10 µM), inactive: 0. Turning to `CCc1nc(-c2cccc(C)c2)c(-c2ccnc(NC(=O)c3ccccc3)c2)s1` (10 µM), the “kinase-Nluc reporter destabilization hit call” value was inactive: 0.

For `CC(C)(C)c1cc(NC(=O)Nc2ccc(-c3cn4c(n3)sc3cc(OCCN5CCOCC5)ccc34)cc2)no1` [Quizartinib] (10 µM), the “kinase-Nluc reporter destabilization hit call” value is inactive: 0. Consider `O=S(=O)(NCCNC/C=C/c1ccc(Br)cc1)c1cccc2cnccc12` [H-89 (dihydrochloride)] (10 µM), for which the “kinase-Nluc reporter destabilization hit call” value was inactive: 0. For `COc1cc2ncn(-c3cc(OCc4ccccc4C(F)(F)F)c(C(N)=O)s3)c2cc1OC` (10 µM), the “kinase-Nluc reporter destabilization hit call” value was inactive: 0. Take `CCn1cc(-c2ccnc3[nH]c(-c4cccc(CN(C)C)c4)cc23)c(-c2ccc(NC(=O)N(C)C)cc2)n1` (2.5 µM): the “kinase-Nluc reporter destabilization hit call” value is inactive: 0.

On to `O=C1c2ccccc2-c2n[nH]c3cccc1c23` (10 µM), for which the “kinase-Nluc reporter destabilization hit call” value was inactive: 0.

Take `C[C@]1(O)C[C@@H](c2nc(-c3ccc4ccc(-c5ccccc5)nc4c3)c3c(N)nccn32)C1` [Linsitinib] (2.5 µM): the “kinase-Nluc reporter destabilization hit call” value is inactive: 0.

On to `C[C@H](CN(C)C)Oc1nc(Nc2cc3cccc(Cl)c3cn2)cnc1C#N` (10 µM), for which the “kinase-Nluc reporter destabilization hit call” value is inactive: 0.

Turning to `Cc1cc(C)c(/C=C2\C(=O)Nc3ccccc32)[nH]1` [Semaxinib] (10 µM), the “kinase-Nluc reporter destabilization hit call” value is inactive: 0.

As to `Cc1cccc(Cn2nc(C3CC3)c3c(NC(=O)c4cnc5cc(OCCN6CCN(C)CC6)ccn45)cccc32)n1` (10 µM), the “kinase-Nluc reporter destabilization hit call” value is inactive: 0. For the molecule `COc1cc(OC)cc(-c2cc3cnc(N)nc3nc2NC(=O)NC(C)(C)C)c1` (10 µM), the “kinase-Nluc reporter destabilization hit call” value is inactive: 0. In the case of `CN(c1ncccc1CNc1nc(Nc2ccc3c(c2)CC(=O)N3)ncc1C(F)(F)F)S(C)(=O)=O` (2.5 µM), the “kinase-Nluc reporter destabilization hit call” value is inactive: 0. As to `COc1ccc2c(C(=O)Nc3ccc(NC(=O)c4nn(C5CCN(C(=O)CC(C)(C)C#N)CC5)c5ccc(F)cc45)cc3Cl)cnn2c1` [Src Inhibitor 3] (2.5 µM), the “kinase-Nluc reporter destabilization hit call” value was inactive: 0.

Consider `Oc1ccc(-c2nc(-c3ccc(F)cc3)c(-c3ccncc3)[nH]2)cc1` (2.5 µM), for which the “kinase-Nluc reporter destabilization hit call” value was inactive: 0.

In the case of `COc1cc(Nc2ncc3c(n2)-c2ccc(Cl)cc2C(c2c(F)cccc2OC)=NC3)ccc1C(=O)O` [Alisertib] (2.5 µM), the “kinase-Nluc reporter destabilization hit call” value is inactive: 0.

Consider `O=c1c(-c2ccc(O)cc2)coc2cc(O)cc(O)c12` [Genistein] (10 µM), for which the “kinase-Nluc reporter destabilization hit call” value was inactive: 0. Turning to `CN1CCN(c2ccc(C(=O)Nc3n[nH]c4ccc(Cc5cc(F)cc(F)c5)cc34)c(NC3CCOCC3)c2)CC1` [Entrectinib] (2.5 µM), the “kinase-Nluc reporter destabilization hit call” value is inactive: 0. In the case of `CCN1CCN(Cc2ccc(C(=O)Nc3ccc(C)c(Oc4ccc5c(c4)CC(=O)N5)c3)cc2C(F)(F)F)CC1` (2.5 µM), the “kinase-Nluc reporter destabilization hit call” value was inactive: 0.
